From patent US12134640B2, “Polypeptides and medical uses thereof” (priority 2016, dated 2024)
At least one peptide structure holds a part that was inferred or is arguable (an end, a ring closure or a residue). No end group written: not given here.

Columns and labels:
[1] = Transmission electron microscopy, gold-labelled peptides binding to LPS; set-up: species or system Escherichia coli; conditions: LPS 10 μg/ml, 1 h
S. aureus [2] = test: Transmission electron microscopy, gold-labelled peptides binding to bacterial surface; set-up: species or system Staphylococcus aureus; conditions: 2 μM peptide conjugated with 10 nm colloidal gold, 2 h at 37° C.
S. aureus [3] = test: Scanning electron microscopy of peptide-treated bacteria; assay type: cell-based, Staphylococcus aureus; conditions: presence of salt, 30 μM, 2 h
E. coli = test: Bactericidal assay (viable count) in salt buffer with or without plasma; assay type: cell-based, Escherichia coli strain 1351; conditions: salt buffer with 20% human plasma
P. aeruginosa 15159 = test: Invasive P. aeruginosa infection model, survival; assay type: in vivo, Female BALB/c mice
Procedure: Animal experiments were performed according to a protocol approved by the Local Ethics Committee at Lund University. Animals were housed under standard conditions of light and temperature and had free access to standard laboratory chow and water. P. aeruginosa 15159 bacteria were grown to mid-exponential phase (A620˜0.5), washed and diluted in PBS to 2×10^8 cfu/ml, and kept on ice until injection. Female BALB/c mice, 8 weeks old, were anesthetized with isoflurane and injected intraperitoneally with 100 μL of the bacterial solution, followed by injection of 100 μL SFV33 or GVR28 peptide (1 mg/mL) after 15 minutes, or with 100 μL PBS alone (control group).

S. aureus [4] = test: Propidium iodide uptake assay; assay type: cell-based, Staphylococcus aureus; conditions: salt condition, 30 μM

| Sequence | binding to LPS [1] | adherence to the bacterial surface (S. aureus [2]) | membrane damage (scanning electron microscopy) (S. aureus [3]) | antibacterial activity (viable count) (E. coli) | survival compared with PBS group (P. aeruginosa 15159; experiment terminated after 29 hours) | time at which 50% mortalities were observed (P. aeruginosa 15159; mice infected i.p., single dose 100 μL peptide (1 mg/mL) 15 minutes after infection) | membrane permeabilization (propidium iodide uptake) (S. aureus [4]) |
| --- | --- | --- | --- | --- | --- | --- | --- |
| DVNVFAIGVEDADEGALKEIASEPLNMHMFNL [DVN32] | bound somewhat | bound to the bacterial surfaces | did not show any membrane damage |  |  |  |  |
| SFVARNTFKRVRNGFLMRKVAVFFSNTPTRASP [SFV33] | bound to LPS | able to adhere to the bacterial surface | caused disruption of bacteria, leading to disintegration and ejection of cytoplasmic components | very efficiently | prolonged survival | 24 h | significant degree of membrane permeabilization |
